According to PubChem BioAssay AID1347076 (National Center for Advancing Translational Sciences (NCATS), 2019):
Out of some 400,000 compounds screened, about 13,000 (3.2%) were called active. The shares of active, inactive and inconclusive entries below differ from those in the screen. Calls follow the shape of the dose curve; as a rule, active = well fitted cell-killing curve with a large enough effect; inconclusive = small, poorly fitted or top-dose-only effect, or effect the other way; inactive = flat fitted curve, though single readings scatter. Potencies beside an inconclusive call are fits to weak or partial responses and may not hold up.

assay: qHTS assay for MDR1-selective chemotherapeutics: Primary screen using the drug-selected MDR subline cells KB-V1; details: KB-V1 MDR cells viability, CellTiter-Glo, 72 h; activity change, negative = cytotoxicity: at 46.1 µM (top of the series); also: nearly all actives have a fitted effect of over 60% in size
Procedure, shortened: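 Cells of the MDR subline KB-V1 are plated, dosed with compound at multiple concentrations, and incubated 72 h at 37 degrees C; CellTiter-Glo is then added and luminescence read after 10 min.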
% is scaled to controls: 0 for no effect and ±100 for the full control effect; potency is read from the fitted curve at half-maximal effect.

Structure (SMILES)	Potency	activity change, negative = cytotoxicity
CCOC(=O)c1ccc(NS(=O)(=O)c2cc(-c3nnnn3CC)ccc2OC)cc1	inconclusive: 29.1 µM [cytotoxic, partial curve, poor fit]	–
COc1cc(Cl)c(S(=O)(=O)N2CCN(c3c(C)cccc3C)CC2)cc1Cl	inconclusive: 20.6 µM [cytotoxic, partial curve, poor fit]	–
Cc1ccc(OCCSc2nc3ccccc3n2CC(=O)N2CCOCC2)cc1C	–	inactive: -3.81%
CCOc1ccc(CO/N=C/c2c(C)[nH]c(=O)[nH]c2=O)cc1	–	inactive: -2.2%
O=C(NCCOc1ccccc1F)C1CCC(=O)N(CCc2cccc(F)c2)C1 (configuration not stated)	–	inactive: -3.73%
COc1ccc(CN(C)CC(=O)NC(=O)NC2CCCCC2)cc1	inconclusive: 29.1 µM [cytotoxic, single point]	–
O=C1C[C@@H]2c3c(cccc3CN1Cc1ccc(F)cc1)C[C@@H](O)[C@H]2O	inconclusive: 0.058 µM [rising, full curve]	–
COc1cc(C(=O)OC(C)C(=O)Nc2ccc3c(c2)OCO3)ccc1OCc1c(C)noc1C (configuration not stated)	–	inactive: 0%
CCc1cc(=O)oc2c(C)c(OS(C)(=O)=O)ccc12	active: 4.11 µM	–
Cc1c(CC(=O)NCCCCCC(=O)O)c(=O)oc2c(C)c3oc4c(c3cc12)CCCC4	inconclusive: 29.1 µM [rising, single point]	–
CCCCOC(=O)CCNc1n[nH]c(=O)[nH]c1=O	inconclusive: 9.2 µM [rising, partial curve]	–
COCc1c(C#N)c(NCCc2ccc(F)cc2)nc(C)c1[N+](=O)[O-]	active: 5.17 µM	–
COc1ccc(S(=O)(=O)NCc2ccco2)cc1N(C)S(=O)(=O)c1ccccc1	inconclusive: 23.1 µM [cytotoxic, partial curve, poor fit]	–
Cn1cc(-c2coc3c(C(=O)Nc4ccccc4)cccc23)cn1	active: 10.3 µM	–
Cc1cccc(-n2c3nc(=O)n(C)c(=O)c-3cc3c(C)nn(-c4ccccc4)c32)c1C	inconclusive: 23.1 µM [rising, partial curve, poor fit]	–
COc1cccc(CCNC(=O)c2cnc3sc(N4CCCC4)nn3c2=O)c1	–	inactive: 0.436%
CC(C)(C)n1nnnc1C(c1ccc2ncccc2c1)N1CCSCC1 (configuration not stated)	inconclusive: 8.2 µM [cytotoxic, partial curve]	–
Cc1ccc(C)c(NC(=O)CSc2nnc(-c3cc(C)[nH]n3)n2N)c1	–	inactive: 5.15%
O=C(N/N=C/c1ccccc1F)c1ccc(COc2ccccc2Cl)o1	active: 18.4 µM	–

Structure (SMILES)	Potency	activity change, negative = cytotoxicity
COc1ccc(-c2csc(=NCCO)n2-c2ccccc2)cc1	inconclusive: 29.1 µM [cytotoxic, single point]	–
CN(CC(=O)Nc1cccc(F)c1)C(=O)CN1C(=O)NC2(CCCC2)C1=O	inconclusive: 16.4 µM [rising, single point]	–
COC1(C(F)(F)F)NC(=O)N(c2ccc(F)cc2)C1=O (configuration not stated)	–	inactive: 20.7%
Clc1ccc2c(NCc3ccccc3)ccnc2c1	inconclusive: 6.51 µM [cytotoxic, full curve]	–
COC(=O)C1=CN(c2ccc(OC)cc2)C=C(C(=O)OC)C1c1ccc(C)c([N+](=O)[O-])c1	active: 3.26 µM	–
Cc1ccc(-n2c(C)cc(C(=O)CN3C(=O)C(=O)N(C4CCCC4)C3=O)c2C)cc1	inconclusive: 29.1 µM [cytotoxic, single point]	–
C=CCn1c(SCC(N)=O)nnc1-c1cnccn1	inconclusive: 29.1 µM [rising, single point]	–
CCOC(=O)c1cnn(-c2cccc(Cl)c2)c1C1CCN(C(=O)OC(C)(C)C)CC1	inconclusive: 32.6 µM [cytotoxic, single point]	–
CCOC(=O)C(=O)Nc1ccccc1C(=O)NCc1ccccc1	–	inactive: -2.61%
CC1CC(C)(C)CC2(C1)NC(=O)N(CC(=O)Nc1ccc3[nH]c(=O)[nH]c3c1)C2=O (configuration not stated)	inconclusive: 32.6 µM [rising, single point]	–
COc1ccc(Cl)cc1NC(=O)N1CCC2(CC1)Oc1ccccc1C(=O)N2Cc1ccc(F)cc1	–	inactive: 17.1%
O=C1/C(=C/c2ccc(F)cc2)Oc2cc(OC(=O)N3CCOCC3)ccc21	–	inactive: -8.52%
CCOc1ccc(-c2nnn(CC(=O)NCc3ccccc3)n2)cc1	inconclusive: 16.4 µM [cytotoxic, partial curve, poor fit]	–
Cc1nc(Sc2nnnn2C)c2c3c(sc2n1)CCC3	active: 6.51 µM	–
CC1(C)Cc2c(sc(/N=C/N3CCCC3)c2C#N)C(C)(C)N1	inconclusive: 25.9 µM [cytotoxic, partial curve, poor fit]	–
CCOC(=O)N1CCC(N(CCCOC)C(=O)Nc2cccc(OC)c2)CC1	–	inactive: -0.652%
CC1CCc2c(sc3nnn(CC(=O)Nc4ccccc4Cl)c(=O)c23)C1 (configuration not stated)	–	inactive: -12.4%
Cn1c(=O)c2c(nc(SCC(=O)N3CCCCCC3)n2C)n(C)c1=O	active: 14.6 µM	–

3 compounds out of the list, arranged by molecular weight, largest number first.
Structure (SMILES)	Potency	activity change, negative = cytotoxicity
CC1CCc2c(sc3nnn(CC(=O)Nc4ccccc4Cl)c(=O)c23)C1 (configuration not stated)	–	inactive: -12.4%
O=C1/C(=C/c2ccc(F)cc2)Oc2cc(OC(=O)N3CCOCC3)ccc21	–	inactive: -8.52%
Cn1c(=O)c2c(nc(SCC(=O)N3CCCCCC3)n2C)n(C)c1=O	active: 14.6 µM	–
